± gives the standard deviation of the averaged measurements. Most values lie at the floor of the assay. Slopes are relative: functional sequences can read slightly below zero.
system: Saccharomyces cerevisiae PS128 hsf1 delta, HSF1(1-493) fusion; assay: growth estimate (transactivation domain function in HSF1 fusion, heat-shock survival) (a.u. (slope of normalised read count over time)); higher = stronger growth at 37°C, i.e. more transactivation activity; details: library: random library
Description: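 Random 60-nt DNA library encoding peptides of up to 20 aa, fused to the C-terminus of yeast HSF1 residues 1-493 (C-terminal TAD deleted) and expressed from the native HSF1 promoter on a CEN plasmid in hsf1-deleted S. cerevisiae PS128. Cells were selected at 37°C on -trp 5-FOA plates for 0, 2, 4, 6 and 8 days and amplicons were sequenced. Growth estimate is the slope of a robust linear fit of total-sum-normalised read counts (normalised to the first time point) over time, using at least 2 replicates. Sequences are classed functional (TAD activity) above a threshold of -0.13, set from stop-codon control sequences.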

Substance | growth estimate
LKTVRFCSMSESSGPDKGIP | < -0.25
HHEAGGNGPDHWEAYRYDSG | -0.248
RGIGLSFWLGACRDISWHGV | < -0.25
SKGNTATSEGFCLN | < -0.25
TTYTTLWQIDLSVAVLRLGN | < -0.25
ERAITRLESVVSVEMWLCWK | < -0.25
PIYYGVQEVCPDAHFCPPHL | < -0.25
MGFKLEES | < -0.25
SPSLGLQAVAFFSSETGNAL | < -0.25
GRRDVVFPPHFRHLIK | < -0.25
FELRNGIKDIKRMWV | < -0.25
IRGMGAGGIRSAVHGT | < -0.25
SGDSCDDSSGDGGGR | < -0.25
AALRVVG | < -0.25
FPYYGLISQAMDGTAMPISN | < -0.25
CSSKSL | < -0.25
ARQSDTGP | < -0.25
CLPSFIDASALSVGF | < -0.25
LLTLPYVVQDRGNRRASAVE | < -0.25
GELTTAL | < -0.25
ARGRE | < -0.25
HSSGATSLVPRCAAA | < -0.25
ATS | -0.247 ± 0.0053
ETYAEHHGKRNNALAK | < -0.25
DRVSTHACVSTT | < -0.25
CAPSK | < -0.25

Substance | growth estimate
SPSLRRLIYLSNT | < -0.25
VVGSVTVSPICF | < -0.25
KAC | < -0.25
GSNETPSAARGRAAG | < -0.25
RID | < -0.25
RVEQSSKPRSASIEGPIDCN | < -0.25
QATLDQAGD | < -0.25
DKQKPGETYMRGVTGGAIER | < -0.25
HEPVNSLISTVSVVFRLSTA | < -0.25
EVHGLSCRSTVREETKR | < -0.25
REKL | < -0.25
ANKRCKESHSWTQYRVGQRH | < -0.25
LGYYEL | -0.193
FLPWVR | < -0.25
PLIKSGRGNWESTRQLSRIM | < -0.25
SVTEISVMGFSCKFRLYRP | < -0.25
LAMYTFLWTAVLLHELGNKV | < -0.25
CESQGGSKVSGQGTLAR | < -0.25
NVSSGQRESVVAGTGIACIS | < -0.25
VGVWPRDSVADSPRAGLISS | < -0.25
LEKFLCQDSK | < -0.25
QGILLKTGYTIPLAWRFDMY | < -0.25
GATNP | < -0.25
DDR | < -0.25
FAESSENTSCFNQRGAKLGL | < -0.25
RSERQDVR | < -0.25

A second format for some results above.
Substance,growth estimate
HHEAGGNGPDHWEAYRYDSG,-0.248
TTYTTLWQIDLSVAVLRLGN,< -0.25
FPYYGLISQAMDGTAMPISN,< -0.25
LLTLPYVVQDRGNRRASAVE,< -0.25
GELTTAL,< -0.25
RID,< -0.25

The list continues:

Substance | growth estimate
RDVIFEIYAMT | < -0.25
RGIVDASQLADIIQSCVGPA | < -0.25
FRGIR | < -0.25
AHSEEAPGAAHGYKVHGIRH | < -0.25
SLGG | < -0.25
QGVALTLYIL | < -0.25
SLRETINSSSRICIRLLVRN | < -0.25
SRAY | < -0.25
YFGCHNIRKRYIIKHLDAPP | < -0.25
GGAEGHSRLSAYGIRSRVIR | < -0.25
RGS | < -0.25
GRSVLFRSCGE | < -0.25
PCPAITVRILVEKGVVRNQG | < -0.25
EHATKTREEPCIWGCLRHGM | < -0.25
HQA | < -0.25
SGGL | < -0.25
YGSARRIPTWDLFDLTHYLR | -0.215
RAPPDWYVPAMCGSPRVPPK | < -0.25
RGTNYRLARYDFMGRGRG | < -0.25
RRRIRRMSLGLPGAP | < -0.25
LNLGNFDKLIKLRVA | < -0.25
FPNDRMIRYGSCGGSPFLSG | < -0.25
VGARF | < -0.25
WRFFV | < -0.25
VLTGKSLEPTKTAEQALGT | < -0.25
WGRIASTRKYRLFDRVRLPL | < -0.25

Substance | growth estimate
RIIAGTGPPGRRWLAVPYVE | < -0.25
GGFLPPDV | < -0.25
SGRRPNLSLGQGSQGS | < -0.25
LATEM | < -0.25
IAGGDQNRVPRAISSRHQAM | < -0.25
TWGQTWIPL | -0.11
TTLHLFIDASATMPHKPESG | < -0.25
WDVRRAAGYQEDRTCRSDDA | < -0.25
EIGAHHHGVFRTRLPPSAYA | < -0.25
GQL | < -0.25
HPGREAFYGNC | < -0.25
VNFKSTHGEQYGESGTSVQC | < -0.25
GPTHTYISGVLVRPLVFMSR | < -0.25
GRATGKFLWIRNEGIWDDVG | < -0.25
SAGGSSMTVCNLGTPARLCL | < -0.25
ARSTAGRPDTI | < -0.25
NSSY | < -0.25
VAVRRPN | < -0.25
SDPIS | -0.219
ACATNALSDFRGNVGSKFLD | < -0.25
PKHLPALTYIDIFRLGVQRT | < -0.25
QVSTSEIDGSLRPTPWGKLE | < -0.25
AGKGAIVC | < -0.25
GYQFTTTLGTECKRAKVSGG | -0.243
IGTLVCLNQLSIGLKRVSS | < -0.25
DFMRFGSTVDFHDRAFGMLE | < -0.25

Part of the list above, with each value named:
MGFKLEES
  growth estimate = < -0.25
FRGIR
  growth estimate = < -0.25
YFGCHNIRKRYIIKHLDAPP
  growth estimate = < -0.25

Later entries

Substance | growth estimate
RNVKDPAPTRAKFGPQTQ | < -0.25
GSQTVK | < -0.25
QRSDMVKLGWISVPEDGVHV | < -0.25
HQV | < -0.25
GLLRECHFKGVRKESGRLTT | -0.249
GEL | < -0.25
RGGNGRGVMPIGY | -0.246
KVGEGKCQGFTPRESYNDEK | < -0.25
RVMTLRLMLSHFRALFNQER | < -0.25
IILPKSHLPACALDLCCVSR | < -0.25
VVQPMAHVHGLSQHGDRCLT | -0.186
LLRINAQARDIAGQH | < -0.25
VSIEGWERARRETA | < -0.25
NPLLRSLSPNTPVLPFKVCS | < -0.25
RSEIERFAFECVGL | < -0.25
SLARNFRAPSNSENRDV | < -0.25
FRGEDLMRSIVEF | < -0.25
SFLFRLLGHTVRPASQHGLS | < -0.25
GNIWFEEQL | < -0.25
ARVHGLARPERPTQNSLSRG | < -0.25
IYNSFFVRLTVG | < -0.25
EAVIPGGAFLHRHPFWTSLR | < -0.25
SVIGGPVSVAGA | < -0.25
VQLETNYY | < -0.25
SRTNLMSKDWVSINMGPYCW | < -0.25
YLNSLFTLTV | < -0.25

Substance | growth estimate
VLCALQWDDMGLLPQSGMEW | < -0.25
LYLKTGCRNGFRIARK | < -0.25
ERVVEAASDLGDYLLFKTML | -0.0984
RANTGVKADSVWATVNEIGN | -0.196
YWE | < -0.25
ESVYWATTADIPDRH | < -0.25
TAPDVCPYYGCLAQSCDTAP | < -0.25
VGTIV | < -0.25
LYSSPSRGSLESDQRYGIK | < -0.25
CYFEEAPLFMDWQVW | < -0.25
NIWG | < -0.25
SVPSTPTTSC | < -0.25
WVNGLLWYPGIV | < -0.25
LMVALVEAT | < -0.25
YCICGKKCTHYSRL | < -0.25
LSLVSESYQAHEPLLRSLQP | < -0.25
DRRLT | < -0.25
SDACTSVRASRKPM | < -0.25
NGQGTSANERPPEKTSWNLR | < -0.25
QTKERAGPQGVRCRCAQPAG | < -0.25
GVSGQ | < -0.25
RDSVAFSIGKTLLGVGSKGV | < -0.25
GSVHESAVLNGGPIMDGRG | < -0.25

From the supplement of paper PMC5949888
